According to PubChem BioAssay AID248 (DTP/NCI, 2004):
The list shows only some results of the screen, not a fair sample: it is rich in T/C values a quarter to a half above the control, in often repeated tests (any T/C) and in doses without a T/C. Further doses and runs are listed elsewhere. T/C: endpoint of the treated group in % of that of the vehicle group. Some doses have a count of surviving animals in place of a T/C: the source holds a T/C of zero for them, seemingly a mark for toxic or unscored doses. Some survivor counts are full or nearly so, which does not show that the dose was tolerated: survival well below the control is almost never listed, so the zero probably covers shortened survival too. Survivors were counted at the toxicity check, usually on the fifth day, unless a day is given; later deaths do not show. Schedule codes are those of the source, read here as Q, the interval in days (D) or hours (H), X, the number of doses. Some schedules carry Z or #; the key to these is not given. Where survival is the endpoint, the PubChem record calls one and a half times the control and up active, and a quarter to a half above the control has no call in these data; cut-offs in other NCI protocols can differ. Some T/C values are followed by the survivors on the day toxicity was checked, most often the fifth; where none is given, no animal had died by that day.

Tested on: L1210 leukemia ip in BDF1 mice, survival T/C
Test: NCI In Vivo Anticancer Drug Screen. Data for tumor model L1210 Leukemia (intraperitoneal) in B6D2F1 (BDF1) mice
Details: T/C endpoint: mean survival time, higher T/C = longer survival
[1] = dose: 300.0 mg/kg/injection, schedule: Q01DX001 (ip), vehicle: saline
[2] = dose: 100.0 mg/kg/injection, schedule: Q01DX001 (ip), vehicle: saline
[3] = dose: 200.0 mg/kg/injection, schedule: Q01DX001 (ip), vehicle: saline
[4] = dose: 400.0 mg/kg/injection, schedule: Q01DX001 (ip), vehicle: saline
[5] = dose: 100.0 mg/kg/injection, schedule: Q04DX003 (ip), vehicle: saline
[6] = dose: 200.0 mg/kg/injection, schedule: Q04DX003 (ip), vehicle: saline
[7] = dose: 400.0 mg/kg/injection, schedule: Q04DX003 (ip), vehicle: saline
[8] = dose: 25.0 mg/kg/injection, schedule: Q01DX009 (ip), vehicle: saline
[9] = dose: 50.0 mg/kg/injection, schedule: Q01DX009 (ip), vehicle: saline
[10] = dose: 100.0 mg/kg/injection, schedule: Q01DX009 (ip), vehicle: saline
[11] = dose: 400.0 mg/kg/injection, schedule: Q01DX009 (ip), vehicle: saline
[12] = dose: 400.0 mg/kg/injection, schedule: Q01DX001 (ip), vehicle: carboxymethylcellulose (CMC)
[13] = dose: 200.0 mg/kg/injection, schedule: Q04DX003 (ip), vehicle: Klucel (hydroxypropylcellulose) (HPC)
[14] = dose: 400.0 mg/kg/injection, schedule: Q04DX003 (ip), vehicle: Klucel (hydroxypropylcellulose) (HPC)

## BrC1C=CC=CN1C/C=C/CN1C=CC=CC1Br (centres undefined)
[1]
  survivor count: 0 of 6

## O=C(CBr)c1ccncc1
dose: 40.0 mg/kg/injection, schedule: Q01DX001 (ip), vehicle: saline
  survivor count: 0 of 4
dose: 80.0 mg/kg/injection, schedule: Q01DX001 (ip), vehicle: saline
  survivor count: 0 of 4
[2]
  survivor count: 0 of 4
[3]
  survivor count: 0 of 4
[4]
  survivor count: 0 of 4

## NC(N)=N/N=C\c1ccc2ccccc2c1
dose: 200.0 mg/kg/injection, schedule: Q04DX003 (ip), vehicle: saline with Tween-80
  survivor count: 6 of 6

## Nc1sc(C(=O)O)cc1[N+](=O)[O-]
dose: 100.0 mg/kg/injection, schedule: Q01DX001 (ip), vehicle: carboxymethylcellulose (CMC)
  survivor count: 4 of 4

## C/C(=N/N=C(N)N)c1cccc(NC(=O)Nc2cccc(/C(C)=N\N=C(N)N)c2)c1
[5]
  T/C: 131 % of control
[6]
  survivor count: 3 of 6
[7]
  survivor count: 0 of 6

## Nc1nc(=S)c2[nH]c(=S)[nH]c2[nH]1
[8]
  T/C: 128 % of control
dose: 35.0 mg/kg/injection, schedule: Q01DX Z (ip), vehicle: saline
  T/C: 129 % of control
[9]
  T/C: 135 % of control
dose: 50.0 mg/kg/injection, schedule: Q01DX Z (ip), vehicle: carboxymethylcellulose (CMC)
  T/C: 132 % of control [4 of 6 alive]
dose: 50.0 mg/kg/injection, schedule: Q01DX Z (ip), vehicle: saline
  T/C: 125 % of control
[10]
  T/C: 140 % of control
dose: 100.0 mg/kg/injection, schedule: Q01DX Z (ip), vehicle: carboxymethylcellulose (CMC)
  T/C: 142 % of control [5 of 6 alive]
dose: 200.0 mg/kg/injection, schedule: Q01DX Z (ip), vehicle: carboxymethylcellulose (CMC)
  T/C: 132 % of control [4 of 6 alive]
dose: 265.0 mg/kg/injection, schedule: Q01DX001 (ip), vehicle: saline
  T/C: 138 % of control
[4]
  T/C: 128 % of control
dose: 600.0 mg/kg/injection, schedule: Q01DX001 (ip), vehicle: saline
  T/C: 135 % of control

## SC1(S)CC(c2ccc(Cl)cc2)NC(c2ccc(Cl)cc2)C1 (centres undefined)
[11]
  survivor count: 2 of 6
[7]
  survivor count: 3 of 6

## CO/N=C(/c1ccccc1)c1cccc[n+]1C
dose: 75.0 mg/kg/injection, schedule: Q04DX003 (ip), vehicle: saline
  survivor count: 2 of 6

## C1C2CC3C1C1CN3C21 (centres undefined)
dose: 50.0 mg/kg/injection, schedule: Q01DX001 (ip), vehicle: saline
  survivor count: 0 of 6
[2]
  survivor count: 0 of 6
[3]
  survivor count: 6 of 6

## NCC(=O)O.[Co]
dose: 26.6 mg/kg/injection, schedule: Q01DX Z (ip), vehicle: saline
  survivor count: 0 of 6

## CN(C)CCC(O)c1ccc(Cl)cc1 (centres undefined)
[7]
  survivor count: 1 of 6

## Cc1cccc(/C=N\NC(=O)CCCC(=O)N/N=C/c2cccc(C)n2)n1
dose: 200.0 mg/kg/injection, schedule: Q01DX001 (ip), vehicle: carboxymethylcellulose (CMC)
  survivor count: 4 of 4
[12]
  survivor count: 4 of 4

## CC(C)Cc1nc2c([nH]1)c(=O)n(C)c(=O)n2C
[4]
  survivor count: 0 of 4

## CC1=C/C(=N/N(C)C)CC(C)C1 (centres undefined)
[10]
  survivor count: 2 of 6
dose: 200.0 mg/kg/injection, schedule: Q01DX009 (ip), vehicle: saline
  survivor count: 4 of 6
[11]
  survivor count: 0 of 6

## Cc1ccc([N+](=O)[O-])cc1N=Nc1ccc(O)c(C(=O)O)c1
[13]
  survivor count: 1 of 6
[14]
  survivor count: 0 of 6

## CC(=O)OC(=O)c1ccc2c(c1)C(=O)c1ccccc1C2=O
dose: 100.0 mg/kg/injection, schedule: Q01DX001 (ip), vehicle: Klucel (hydroxypropylcellulose) (HPC)
  survivor count: 2 of 6
dose: 200.0 mg/kg/injection, schedule: Q01DX001 (ip), vehicle: Klucel (hydroxypropylcellulose) (HPC)
  survivor count: 3 of 6
[13]
  survivor count: 1 of 6
[14]
  survivor count: 3 of 6

## O=Cc1[nH]c(=S)[nH]c(=O)c1Cc1ccc2ccccc2c1
dose: 400.0 mg/kg/injection, schedule: Q01DX001 (ip), vehicle: saline with Tween-80
  survivor count: 3 of 6

## C#CC(N)=O
[8]
  survivor count: 3 of 6
[9]
  survivor count: 0 of 6
[10]
  survivor count: 0 of 6
[5]
  survivor count: 1 of 6
dose: 150.0 mg/kg/injection, schedule: Q01DX001 (ip), vehicle: saline
  survivor count: 0 of 6
[1]
  survivor count: 0 of 6

## O=C(NCCF)NC1CS(=O)(=O)CS(=O)(=O)C1
dose: 75.0 mg/kg/injection, schedule: Q01DX001 (ip), vehicle: other
  survivor count: 0 of 6
dose: 150.0 mg/kg/injection, schedule: Q01DX001 (ip), vehicle: other
  survivor count: 0 of 6
dose: 300.0 mg/kg/injection, schedule: Q01DX001 (ip), vehicle: other
  survivor count: 0 of 6

## CC1(C)C=CC(=NO)C=C1
dose: 400.0 mg/kg/injection, schedule: Q01DX009 (ip), vehicle: Klucel (hydroxypropylcellulose) (HPC)
  survivor count: 0 of 6

## Cc1nnc2c3ccccc3c(-c3ccccc3)nn12
[12]
  survivor count: 6 of 6

## CC[n+]1ccc(/C=C\c2cccc([N+](=O)[O-])c2)cc1
[13]
  survivor count: 1 of 6
[14]
  survivor count: 0 of 6

## CC(=O)OCC(OC(C)=O)C(OC(C)=O)C(OC(C)=O)C(/C=N/NC(N)=S)=N/NC(N)=S (centres undefined)
dose: 400.0 mg/kg/injection, schedule: Q01DX009 (ip), vehicle: other
  survivor count: 2 of 6

## CN(C)c1ccc(/C=N/NC(=O)c2cccc3ccccc23)c(Cl)c1
[2]
  survivor count: 4 of 4
[3]
  survivor count: 4 of 4

## O=C(O)c1ccccc1/C=C1/Nc2ccccc2C1=O
dose: 40.0 mg/kg/injection, schedule: Q01DX001 (ip), vehicle: acetone
  survivor count: 1 of 6
dose: 75.0 mg/kg/injection, schedule: Q01DX001 (ip), vehicle: acetone
  survivor count: 0 of 6
dose: 150.0 mg/kg/injection, schedule: Q01DX001 (ip), vehicle: acetone
  survivor count: 0 of 6
dose: 300.0 mg/kg/injection, schedule: Q01DX001 (ip), vehicle: acetone
  survivor count: 0 of 6

## CC(C)=NNC(=O)CC#N
dose: 400.0 mg/kg/injection, schedule: Q01DX001 (ip), vehicle: Klucel (hydroxypropylcellulose) (HPC)
  survivor count: 1 of 6

## CC(O)CNC1CCC(C)CC1 (centres undefined)
dose: 300.0 mg/kg/injection, schedule: Q01DX001 (ip), vehicle: acid diluted with saline
  survivor count: 1 of 6

## Cc1ncnc2c1CCC2
dose: 200.0 mg/kg/injection, schedule: Q01DX009 (ip), vehicle: saline with Tween-80
  survivor count: 2 of 6
dose: 400.0 mg/kg/injection, schedule: Q04DX003 (ip), vehicle: saline with Tween-80
  survivor count: 0 of 6

## O=[N+]([O-])c1ccc(Nc2ccccc2)c([N+](=O)[O-])c1
dose: 200.0 mg/kg/injection, schedule: Q04DX002 (ip), vehicle: Klucel (hydroxypropylcellulose) (HPC)
  survivor count: 3 of 3

## CC1(NC(=O)N(CCCl)N=O)CCCC1
dose: 375.0 mg/kg/injection, schedule: Q01DX001 (ip), vehicle: carboxymethylcellulose (CMC)
  survivor count: 6 of 6
dose: 500.0 mg/kg/injection, schedule: Q01DX001 (ip), vehicle: carboxymethylcellulose (CMC)
  survivor count: 6 of 6
dose: 750.0 mg/kg/injection, schedule: Q01DX001 (ip), vehicle: carboxymethylcellulose (CMC)
  survivor count: 6 of 6

## C[S+]1CCSCC1
[5]
  survivor count: 4 of 6
[6]
  survivor count: 2 of 6
[7]
  survivor count: 0 of 6
